Record: PubChem BioAssay AID493246 (Drosophila RNAi Screening Center, 2011)

Aim: 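Identify essential fly genes by loss of cell viability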 (primary screen)
Cell system: Drosophila Kc and S2R+ cells
Reagents: long dsRNA against Drosophila genes
Measured: 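Cell number per well after knock-down, printed as raw plate values; calls were based on per-plate z-scores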
Reading the numbers: Kc cell number and S2R+ cell number: higher = more cells remaining
Rule for the call: 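Counted as a hit if cell number falls by a z-score of at least 3 within its plate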
In all, the deposit lists about 21,000 reagents; below is an unselected part of those with a known target gene and a result. In the full data, 429 (2%) got an active call. 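Values are raw and not normalised between plates; calls rest on per-plate z-scores that were not deposited.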 Not stated in the record: the amount of reagent, the time to read-out.

| gene knocked down | amplicon | Kc cell number, rep 1 | Kc cell number, rep 2 | S2R+ cell number, rep 1 | S2R+ cell number, rep 2 | activity call |
| --- | --- | --- | --- | --- | --- | --- |
| CG8405 | DRSC05599 | 5.02e5 | – | 7.44e5 | – | inactive |
| CG8405 | DRSC07166 | 1.54e6 | 1.55e6 | 1.16e6 | 1.29e6 | inactive |
| Aven (Apoptosis and caspase activation inhibitor) | DRSC19693 | 1.66e6 | 1.51e6 | 9.95e5 | 1.18e6 | inactive |
| CG13288 | DRSC09962 | 1.68e6 | 1.67e6 | 1.10e6 | 1.15e6 | inactive |
| I-t (inhibitor-t) | DRSC16713 | 1.51e6 | 1.55e6 | 1.24e6 | 1.31e6 | inactive |
| PPO2 (Prophenoloxidase 2) | DRSC07102 | 1.31e6 | 1.35e6 | 1.12e6 | 1.18e6 | inactive |
| Gcn5 (Gcn5 acetyltransferase) | DRSC11248 | 1.05e6 | 1.15e6 | 1.14e6 | 1.01e6 | inactive |
| ACXC (Adenylyl cyclase X C) | DRSC00846 | 1.56e6 | 1.59e6 | 1.22e6 | 1.32e6 | inactive |
| CG9933 | DRSC03276 | 1.66e6 | 1.82e6 | 1.23e6 | 1.31e6 | inactive |
| Polr3E (RNA polymerase III subunit E) | DRSC11880 | 1.58e6 | 1.58e6 | 1.23e6 | 1.34e6 | inactive |
| SLIRP2 (SRA stem-loop interacting RNA binding protein 2) | DRSC16363 | 1.41e6 | 1.53e6 | 1.22e6 | 1.30e6 | inactive |
| CG17078 | DRSC00484 | 1.61e6 | 1.59e6 | 1.17e6 | 1.54e6 | inactive |
| CG1246 | DRSC08275 | 1.68e6 | 1.58e6 | 1.11e6 | 1.42e6 | inactive |
| MSBP (membrane steroid binding protein) | DRSC20146 | 6.13e5 | – | 9.54e5 | – | inactive |
| eEF1gamma (eukaryotic translation elongation factor 1 gamma) | DRSC16659 | 1.34e6 | 1.43e6 | 7.43e5 | 8.16e5 | inactive |
| CG4734 | DRSC06885 | 1.65e6 | 1.72e6 | 1.36e6 | 1.42e6 | inactive |
| ouib (ouija board) | DRSC14376 | 1.38e6 | 1.53e6 | 1.23e6 | 1.33e6 | inactive |
| tow (target of wingless) | DRSC10192 | 9.33e5 | 1.02e6 | 5.30e5 | 6.58e5 | active |
| CG15705 | DRSC06576 | 1.62e6 | 1.68e6 | 1.27e6 | 1.46e6 | inactive |
| dany (distal antenna-young) | DRSC04141 | 1.51e6 | 1.63e6 | 1.29e6 | 3.95e5 | inactive |
| CG4630 | DRSC06874 | 1.34e6 | 1.45e6 | 9.15e5 | 1.01e6 | inactive |
| Ugt302K1 (UDP-glycosyltransferase family 302 member K1) | DRSC16086 | 1.60e6 | 1.56e6 | 1.19e6 | 1.32e6 | inactive |
| cGlr2 (cGAS-like receptor 2) | DRSC04017 | 1.36e6 | 1.45e6 | 6.47e5 | 7.93e5 | active |
| CG13131 | DRSC02227 | 1.47e6 | 1.49e6 | 1.18e6 | 1.27e6 | inactive |
| TER94 (Transitional endoplasmic reticulum 94) | DRSC07560 | 1.03e6 | 1.18e6 | 9.96e5 | 1.06e6 | inactive |
| Ucp4B (Uncoupling protein 4B) | DRSC02665 | 1.51e6 | 1.35e6 | 1.16e6 | 1.27e6 | inactive |
| CG10587 | DRSC11627 | 1.36e6 | 1.41e6 | 1.31e6 | 1.32e6 | inactive |

A portion of the results above, as a working copy:
| gene knocked down | amplicon | Kc cell number, rep 1 | Kc cell number, rep 2 | S2R+ cell number, rep 1 | S2R+ cell number, rep 2 | activity call |
| --- | --- | --- | --- | --- | --- | --- |
| CG15705 | DRSC06576 | 1.62e6 | 1.68e6 | 1.27e6 | 1.46e6 | inactive |
| dany (distal antenna-young) | DRSC04141 | 1.51e6 | 1.63e6 | 1.29e6 | 3.95e5 | inactive |
| CG4630 | DRSC06874 | 1.34e6 | 1.45e6 | 9.15e5 | 1.01e6 | inactive |

Continued:
| gene knocked down | amplicon | Kc cell number, rep 1 | Kc cell number, rep 2 | S2R+ cell number, rep 1 | S2R+ cell number, rep 2 | activity call |
| --- | --- | --- | --- | --- | --- | --- |
| CG15650 | DRSC04241 | 1.60e6 | 1.68e6 | 1.36e6 | 4.71e5 | inactive |
| Remo (Remoulade) | DRSC19710 | 1.83e6 | 1.74e6 | 1.09e6 | 1.18e6 | inactive |
| ast (asteroid) | DRSC00803 | 1.23e6 | 1.59e6 | 1.08e6 | 1.18e6 | inactive |
| CG9106 | DRSC20154 | 5.92e5 | – | 9.17e5 | – | inactive |
| DZIP1 | DRSC14620 | 1.53e6 | 1.70e6 | 1.10e6 | 1.21e6 | inactive |
| CR31700 (pseudo) | DRSC03682 | 6.09e5 | – | 8.76e5 | – | inactive |
| GrlHz (Gustatory receptor-like Holozoa) | DRSC04424 | 1.38e6 | 1.45e6 | 1.13e6 | 1.23e6 | inactive |
| CG11257 | DRSC06068 | 1.44e6 | 1.55e6 | 1.06e6 | 1.28e6 | inactive |
| Dcps (Decapping enzyme, scavenger) | DRSC12299 | 1.57e6 | 1.64e6 | 1.20e6 | 1.28e6 | inactive |
| Klp59D (Kinesin-like protein at 59D) | DRSC04118 | 1.66e6 | 1.68e6 | 1.38e6 | 1.48e6 | inactive |
| mRNA-cap (mRNA-capping-enzyme) | DRSC19789 | 1.62e6 | 1.68e6 | 8.67e5 | 9.53e5 | inactive |
| tim (timeless) | DRSC00841 | 1.33e6 | 1.38e6 | 8.85e5 | 8.49e5 | inactive |
| CG7730 | DRSC10909 | 1.50e6 | 1.51e6 | 1.26e6 | 1.29e6 | inactive |
| CG4332 | DRSC19890 | 5.33e5 | – | 9.03e5 | – | inactive |
| Sas-4 (Spindle assembly abnormal 4) | DRSC12505 | 1.62e6 | 1.71e6 | 1.29e6 | 1.32e6 | inactive |
| Fdx2 (Ferredoxin 2) | DRSC08306 | 1.67e6 | 1.56e6 | 9.90e5 | 1.28e6 | inactive |
| Nf1 (Neurofibromin 1) | DRSC16758 | 5.41e5 | – | 7.43e5 | – | inactive |
| CG12912 | DRSC06227 | 1.48e5 | 2.25e5 | 3.11e5 | 3.80e5 | active |
| Rcd2 (Reduction in Cnn dots 2) | DRSC11756 | 1.38e6 | 1.61e6 | 1.01e6 | 1.22e6 | inactive |
| CG10462 | DRSC02058 | 1.37e6 | 1.44e6 | 1.34e6 | 1.42e6 | inactive |
| Sod1 (Superoxide dismutase 1) | DRSC11286 | 1.36e6 | 1.26e6 | 1.19e6 | 1.26e6 | inactive |
| CadN (Cadherin-N) | DRSC03286 | 1.68e6 | 1.76e6 | 1.24e6 | 1.40e6 | inactive |
| verm (vermiform) | DRSC11038 | 1.62e6 | 1.72e6 | 1.13e6 | 1.25e6 | inactive |
| Cmpk (Cytidine/uridine monophosphate kinase 1) | DRSC16643 | 5.04e5 | – | 7.73e5 | – | inactive |
| Hsp68 (Heat shock protein 68) | DRSC16712 | 1.40e6 | 1.45e6 | 9.65e5 | 1.02e6 | inactive |
| rho-7 (rhomboid-7) | DRSC07304 | 1.66e6 | 1.64e6 | 1.34e6 | 1.47e6 | inactive |
| sp3 (spermathreecae) | DRSC16354 | 1.46e6 | 1.44e6 | 1.03e6 | 1.14e6 | inactive |
| mRpS2 (mitochondrial ribosomal protein S2) | DRSC00550 | 1.66e6 | 1.72e6 | 1.18e6 | 1.38e6 | inactive |
| tx (retired record) | DRSC16931 | 5.63e5 | – | 7.00e5 | – | inactive |
| CG15528 | DRSC15065 | 1.58e6 | 1.63e6 | 1.09e6 | 1.20e6 | inactive |
| PDCD-5 (Programmed Cell Death 5) | DRSC09955 | 1.48e6 | 1.67e6 | 1.41e6 | 1.56e6 | inactive |
| Dr (Drop) | DRSC17002 | 1.38e6 | 1.49e6 | 1.02e6 | 1.13e6 | inactive |
